PubChem BioAssay AID504791, Drosophila RNAi Screening Center – 2011
Aim: 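Genes of the fly required for silencing by miRNA, siRNA or endo-siRNA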 (primary screen). Cells: Drosophila S2-derived reporter cells. Reagent: long dsRNA against Drosophila genes, about 150-250 ng dsRNA per well (siRNA assay); about 80-120 ng (miRNA assay). Timing: about 5 days (siRNA assay); about 4 days (miRNA assay). Conditions: copper sulfate induction of reporters: 25 µM (siRNA assay); 200 mM stated (miRNA assay), 1-2 days before reading. Measured: 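Dual luciferase assay: Renilla to firefly signal ratio in each well, scaled to the mean ratio of its plate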. Direction: siRNA reporter hit score: higher = 3 marks a strong hit with raised ratio; -3 a strong hit with lowered ratio. Hit rule: 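First-pass picks had plate-scaled ratios over 1.5 for the siRNA assay, over 1.6 for the miRNA assay, or under 0.6; two distinct dsRNAs had to score alike on retest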.
In all, the deposit lists about 23,000 reagents; shown is an unselected part of those with a known target gene and a result. Of all reagents, 199 (0.86%) were called active. 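Plate-scaled ratios behind the calls are not deposited; printed light signals are raw; many rows marked increased or decreased are still called inactive.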 A number with no mark means an inactive call. Names joined by + are all predicted targets of the reagent. No sequences are given here.

| target | DRSC id | siRNA reporter hit score | stable siRNA reporter change | stable assay Renilla, run 1 (luminescence) | stable assay firefly, run 1 (luminescence) |
| --- | --- | --- | --- | --- | --- |
| pira (GeneID 32229) | DRSC19494 | – | – | 5663 | 4.18e5 |
| CG9853 (GeneID 40557) | DRSC12343 | – | – | 3899 | 2.84e5 |
| CG9853 (GeneID 40557) | DRSC22840 | – | – | 5847 | 4.34e5 |
| Fgop2 (GeneID 33971) | DRSC02016 | – | – | 6760 | 1.30e5 |
| PGRP-SB1 (GeneID 39870) | DRSC11090 | – | – | 7151 | 4.14e5 |
| CG17111 (GeneID 42727) | DRSC15174 | – | – | 6331 | 3.29e5 |
| CG32280 (GeneID 317952) | DRSC08024 | – | – | 4840 | 3.66e5 |
| dpr17 (GeneID 41470) | DRSC12885 | – | – | 4704 | 3.42e5 |
| dpr17 (GeneID 41470) | DRSC14957 | – | – | 4251 | 1.71e5 |
| dpr17 (GeneID 41470) | DRSC14958 | – | – | 5566 | 3.87e5 |
| Amacr (GeneID 35337) | DRSC03198 | – | – | 9921 | 5.03e5 |
| CG14546 (GeneID 43142) | DRSC14890 | – | – | 6478 | 2.62e5 |
| Tim13 (GeneID 39327) | DRSC09848 | – | – | 5919 | 3.66e5 |
| Dbp80 (GeneID 3354919) | DRSC22034 | – | – | 9619 | 4.72e5 |
| PGRP-SC1a (GeneID 35859) | DRSC06482 | – | – | 6388 | 3.19e5 |
| CG14115 (GeneID 39487) | DRSC10118 | – | – | 5466 | 4.01e5 |
| Gr28b (GeneID 117496) | DRSC02291 | – | – | 7324 | 3.65e5 |
| Gr28b (GeneID 117496) | DRSC02292 | – | – | 7514 | 3.96e5 |
| Treh (GeneID 45368) | DRSC04548 | – | – | 25837 | 7.67e5 |
| CG9945 (GeneID 37329) | DRSC07347 | – | – | 6472 | 4.56e5 |
| CG34234 + Dh44-R2 | DRSC07278 | – | – | 7938 | 4.55e5 |
| CG14658 (GeneID 40603) | DRSC12244 | – | – | 8099 | 4.69e5 |
| Afti (GeneID 41744) | DRSC16440 | – | – | 8026 | 4.41e5 |
| CG32718 (GeneID 318168) | DRSC17538 | – | – | 4976 | 3.86e5 |
| Cyp6t1 (GeneID 33127) | DRSC20564 | – | – | 5447 | 3.37e5 |
| PGAP2 (GeneID 33258) | DRSC00632 | – | – | 11966 | 5.85e5 |
| ACXE (GeneID 53426) | DRSC00847 | – | – | 7754 | 3.73e5 |
| Golgin104 (GeneID 39810) | DRSC10459 | – | – | 8747 | 3.44e5 |

Not a retest: 9 of the entries above.
| target | DRSC id | siRNA reporter hit score | stable siRNA reporter change | stable assay Renilla, run 1 (luminescence) | stable assay firefly, run 1 (luminescence) |
| --- | --- | --- | --- | --- | --- |
| Dbp80 (GeneID 3354919) | DRSC22034 | – | – | 9619 | 4.72e5 |
| PGRP-SC1a (GeneID 35859) | DRSC06482 | – | – | 6388 | 3.19e5 |
| CG14115 (GeneID 39487) | DRSC10118 | – | – | 5466 | 4.01e5 |
| Gr28b (GeneID 117496) | DRSC02291 | – | – | 7324 | 3.65e5 |
| Gr28b (GeneID 117496) | DRSC02292 | – | – | 7514 | 3.96e5 |
| Treh (GeneID 45368) | DRSC04548 | – | – | 25837 | 7.67e5 |
| CG9945 (GeneID 37329) | DRSC07347 | – | – | 6472 | 4.56e5 |
| CG34234 + Dh44-R2 | DRSC07278 | – | – | 7938 | 4.55e5 |
| CG14658 (GeneID 40603) | DRSC12244 | – | – | 8099 | 4.69e5 |

The list goes on:
| target | DRSC id | siRNA reporter hit score | stable siRNA reporter change | stable assay Renilla, run 1 (luminescence) | stable assay firefly, run 1 (luminescence) |
| --- | --- | --- | --- | --- | --- |
| Prosbeta5R1 (GeneID 37690) | DRSC04581 | – | – | 7182 | 4.31e5 |
| aPKC (GeneID 47594) | DRSC05515 | – | – | 6700 | 3.55e5 |
| aPKC (GeneID 47594) | DRSC07639 | – | – | 6063 | 2.73e5 |
| CG15219 (GeneID 49992) | DRSC03715 | – | – | 5999 | 4.72e5 |
| Nup160 (GeneID 34549) | DRSC02774 | – | reporter ratio raised past the hit cutoff (active) | 12094 | 3.36e5 |
| CG3769 (GeneID 34262) | DRSC02723 | – | – | 7602 | 2.96e5 |
| CG6583 (GeneID 34645) | DRSC02972 | – | reporter ratio raised past the hit cutoff | 9398 | 3.17e5 |
| stw (GeneID 35494) | DRSC04842 | – | – | 5739 | 3.52e5 |
| stw (GeneID 35494) | DRSC04843 | – | – | 5955 | 3.39e5 |
| stw (GeneID 35494) | DRSC22527 | – | – | 5104 | 6.49e5 |
| esn (GeneID 53557) | DRSC05039 | – | – | 5343 | 4.23e5 |
| esn (GeneID 53557) | DRSC07612 | – | – | 7079 | 3.64e5 |
| Xpd (GeneID 37414) | DRSC04666 | -3 | – | 3.20e5 | 2.11e5 |
| Tep4 (GeneID 35248) | DRSC03453 | – | – | 7174 | 3.27e5 |
| CG13585 (GeneID 37918) | DRSC04221 | – | – | 6136 | 3.89e5 |
| Got1 (GeneID 36782) | DRSC07177 | – | – | 9115 | 3.95e5 |
| Ripalpha (GeneID 34351) | DRSC02657 | – | – | 7292 | 3.78e5 |
| CG32104 (GeneID 39413) | DRSC10127 | – | – | 6016 | 5.13e5 |
| CG32104 (GeneID 39413) | DRSC10128 | – | – | 6131 | 5.47e5 |
| eIF3h (GeneID 45682) | DRSC01995 | – | – | 20799 | 6.65e5 |
| CG13675 (GeneID 38907) | DRSC08908 | – | – | 4263 | 3.83e5 |
| CG13675 (GeneID 38907) | DRSC10034 | – | reporter ratio raised past the hit cutoff | 6943 | 2.34e5 |
| CG13675 (GeneID 38907) | DRSC23124 | – | – | 4795 | 3.06e5 |
| AdamTS-A (GeneID 41887) | DRSC14992 | – | – | 7868 | 5.40e5 |
| AdamTS-A (GeneID 41887) | DRSC15966 | – | – | 7238 | 4.32e5 |
| Urm1 (GeneID 2768949) | DRSC22941 | – | – | 4547 | 3.96e5 |
| CG31021 (GeneID 43638) | DRSC22319 | – | reporter ratio raised past the hit cutoff | 8369 | 1.26e5 |
| CG13016 (GeneID 36562) | DRSC06271 | – | – | 6398 | 3.99e5 |
| CG4259 (GeneID 33385) | DRSC00645 | – | – | 7868 | 4.24e5 |
| LUBEL (GeneID 33950) | DRSC02141 | – | – | 8248 | 4.87e5 |
| robo1 (GeneID 37603) | DRSC04712 | – | – | 6342 | 3.65e5 |
| CG13674 (GeneID 38921) | DRSC10033 | – | – | 7579 | 4.89e5 |
| CG14034 (GeneID 33751) | DRSC02359 | – | – | 7971 | 3.86e5 |
| MAGE (GeneID 40860) | DRSC12504 | – | – | 6559 | 3.21e5 |
| CG32302 (GeneID 38293) | DRSC08340 | – | – | 6103 | 3.94e5 |
| CG10600 (GeneID 35142) | DRSC02074 | – | – | 6646 | 1.44e6 |
| CG8564 (GeneID 38825) | DRSC10997 | – | – | 8750 | 3.75e5 |
| cas (GeneID 44018) | DRSC12373 | – | – | 7039 | 4.54e5 |
| wuho (GeneID 31566) | DRSC18101 | – | – | 5804 | 3.62e5 |
| CG4752 (GeneID 37569) | DRSC04486 | – | – | 6506 | 4.77e5 |
| CG7025 (GeneID 34042) | DRSC03002 | – | – | 8130 | 5.82e5 |
| Jhbp13 (GeneID 34729) | DRSC02913 | – | – | 6879 | 5.48e5 |
| loqs (GeneID 34751) | DRSC02997 | – | – | 12735 | 5.17e5 |
| Nak (GeneID 35154) | DRSC03379 | – | – | 1.19e5 | 1.22e6 |
| hgo (GeneID 34552) | DRSC03544 | – | – | 7768 | 4.19e5 |
| Pkd2 (GeneID 34651) | DRSC02962 | – | – | 7336 | 4.85e5 |
| Tailor (GeneID 40847) | DRSC12526 | – | – | 7759 | 4.02e5 |
| Duba (GeneID 39302) | DRSC10582 | – | – | 10246 | 4.95e5 |
| Sec71 (GeneID 34785) | DRSC01893 | – | – | 6586 | 3.13e5 |
| Mco1 (GeneID 34258) | DRSC02720 | – | – | 6962 | 3.82e5 |
| CG4653 (GeneID 32650) | DRSC19909 | – | – | 4363 | 5.01e5 |
| CG4653 (GeneID 32650) | DRSC22857 | – | – | 4359 | 3.82e5 |
| Trmt61 (GeneID 43170) | DRSC14888 | – | – | 6299 | 2.97e5 |
| CG31462 (retired record) (GeneID 326143) | DRSC14359 | – | – | 6691 | 3.78e5 |
| TTLL1A (GeneID 32704) | DRSC20121 | – | – | 7910 | 3.38e5 |
